Reference: patent publication US20100227935A1, “CLASS OF TERPENE-DERIVED COMPOUNDS HAVING AN ANTIBIOTIC ACTIVITY, COMPOSITIONS CONTAINING THE SAME AND USES THEREOF” (Centre National De La Recherche Scientifique, priority 2006, published 2010)

Key:
Assay type in all cases: cell-based
Staphylococcus aureus H1 = assay: MIC / antibiotic susceptibility
Staphylococcus aureus H3 = assay: MIC / antibiotic susceptibility
Staphylococcus aureus H4 = assay: MIC / antibiotic susceptibility
Staphylococcus aureus H7 = assay: MIC / antibiotic susceptibility
Staphylococcus aureus H9 = assay: MIC / antibiotic susceptibility
[1] = test system: Staphylococcus aureus H16
[2] = test system: Staphylococcus aureus H18; assay: MIC / antibiotic susceptibility

Measured: Susceptibility of strain to antibiotic
Also: key: R: strain resistant to antibiotic concerned; S: strain sensitive to antibiotic concerned; L strain with intermediate resistance to antibiotic concerned.

CCC[C@@H]1C[C@@H](C(=O)N[C@@H]([C@H]2O[C@H](SC)[C@H](O)[C@@H](O)[C@H]2O)[C@H](C)Cl)N(C)C1 [Clindamycin]
S: Staphylococcus aureus H1 | Staphylococcus aureus H4 | Staphylococcus aureus H9
R: all other assays above
